The list shows a part of the results. Most values lie at the level of the controls, where differences are scatter.

The chains behind the UniProt entries cited, without tags or fusion partners. Where a name states a change or a piece, a line headed by the entry shows the natural chain unless it says otherwise.
UniProt P0AE28: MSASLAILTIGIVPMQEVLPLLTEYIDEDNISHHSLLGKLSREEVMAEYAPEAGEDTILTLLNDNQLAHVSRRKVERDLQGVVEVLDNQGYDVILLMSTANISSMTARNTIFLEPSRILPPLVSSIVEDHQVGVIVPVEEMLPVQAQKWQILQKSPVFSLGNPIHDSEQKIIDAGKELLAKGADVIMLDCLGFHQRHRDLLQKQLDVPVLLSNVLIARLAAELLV
UniProt P0AFU8: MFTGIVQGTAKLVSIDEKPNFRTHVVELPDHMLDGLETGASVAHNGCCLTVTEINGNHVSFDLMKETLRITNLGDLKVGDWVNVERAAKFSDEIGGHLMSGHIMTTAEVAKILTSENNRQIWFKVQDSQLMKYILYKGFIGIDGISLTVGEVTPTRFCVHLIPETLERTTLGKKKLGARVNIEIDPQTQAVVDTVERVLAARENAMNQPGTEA
UniProt P0ADD5: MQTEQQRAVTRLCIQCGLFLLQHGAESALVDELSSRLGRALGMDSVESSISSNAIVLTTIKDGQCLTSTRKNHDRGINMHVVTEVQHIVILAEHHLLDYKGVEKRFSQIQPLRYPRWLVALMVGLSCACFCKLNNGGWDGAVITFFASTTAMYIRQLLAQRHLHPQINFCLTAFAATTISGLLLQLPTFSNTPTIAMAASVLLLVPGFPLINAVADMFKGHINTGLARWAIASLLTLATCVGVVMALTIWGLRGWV
UniProt P0AEK2: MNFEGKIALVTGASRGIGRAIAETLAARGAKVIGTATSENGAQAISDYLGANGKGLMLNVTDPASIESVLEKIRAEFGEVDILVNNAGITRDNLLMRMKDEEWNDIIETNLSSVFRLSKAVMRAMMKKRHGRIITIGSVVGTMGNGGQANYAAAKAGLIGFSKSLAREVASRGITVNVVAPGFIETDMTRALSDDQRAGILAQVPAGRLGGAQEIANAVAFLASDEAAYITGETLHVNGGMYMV
UniProt P0AEX3: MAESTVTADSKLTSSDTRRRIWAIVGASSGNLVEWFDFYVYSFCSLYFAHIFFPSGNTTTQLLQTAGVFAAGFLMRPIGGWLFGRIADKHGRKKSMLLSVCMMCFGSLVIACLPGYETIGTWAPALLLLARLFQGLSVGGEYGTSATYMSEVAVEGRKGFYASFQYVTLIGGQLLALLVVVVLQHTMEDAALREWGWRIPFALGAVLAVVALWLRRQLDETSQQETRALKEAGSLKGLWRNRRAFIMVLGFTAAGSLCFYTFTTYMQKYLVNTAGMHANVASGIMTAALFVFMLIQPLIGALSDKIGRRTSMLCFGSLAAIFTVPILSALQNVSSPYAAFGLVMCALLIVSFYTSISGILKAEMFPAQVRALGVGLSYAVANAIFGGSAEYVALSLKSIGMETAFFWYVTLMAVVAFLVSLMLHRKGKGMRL
UniProt P0AG14: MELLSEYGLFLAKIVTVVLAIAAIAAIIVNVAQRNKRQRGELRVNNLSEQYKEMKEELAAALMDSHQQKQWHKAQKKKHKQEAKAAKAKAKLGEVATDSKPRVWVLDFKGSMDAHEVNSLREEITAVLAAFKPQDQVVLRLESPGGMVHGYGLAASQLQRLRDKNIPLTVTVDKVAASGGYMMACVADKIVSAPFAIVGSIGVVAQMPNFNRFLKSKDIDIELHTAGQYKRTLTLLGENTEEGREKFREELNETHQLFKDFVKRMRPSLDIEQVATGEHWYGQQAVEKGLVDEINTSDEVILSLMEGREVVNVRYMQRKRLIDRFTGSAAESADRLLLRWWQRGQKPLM
UniProt P0AE58: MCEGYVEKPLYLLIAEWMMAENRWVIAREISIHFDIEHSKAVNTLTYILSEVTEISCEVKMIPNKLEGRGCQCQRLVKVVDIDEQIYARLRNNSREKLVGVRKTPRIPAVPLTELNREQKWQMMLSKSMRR
UniProt P0AEE1: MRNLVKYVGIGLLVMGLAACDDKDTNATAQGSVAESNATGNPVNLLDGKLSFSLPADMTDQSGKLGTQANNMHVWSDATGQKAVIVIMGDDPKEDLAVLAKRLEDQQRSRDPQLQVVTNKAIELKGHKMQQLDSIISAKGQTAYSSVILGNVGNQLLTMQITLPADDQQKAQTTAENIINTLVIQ
UniProt P0AF43: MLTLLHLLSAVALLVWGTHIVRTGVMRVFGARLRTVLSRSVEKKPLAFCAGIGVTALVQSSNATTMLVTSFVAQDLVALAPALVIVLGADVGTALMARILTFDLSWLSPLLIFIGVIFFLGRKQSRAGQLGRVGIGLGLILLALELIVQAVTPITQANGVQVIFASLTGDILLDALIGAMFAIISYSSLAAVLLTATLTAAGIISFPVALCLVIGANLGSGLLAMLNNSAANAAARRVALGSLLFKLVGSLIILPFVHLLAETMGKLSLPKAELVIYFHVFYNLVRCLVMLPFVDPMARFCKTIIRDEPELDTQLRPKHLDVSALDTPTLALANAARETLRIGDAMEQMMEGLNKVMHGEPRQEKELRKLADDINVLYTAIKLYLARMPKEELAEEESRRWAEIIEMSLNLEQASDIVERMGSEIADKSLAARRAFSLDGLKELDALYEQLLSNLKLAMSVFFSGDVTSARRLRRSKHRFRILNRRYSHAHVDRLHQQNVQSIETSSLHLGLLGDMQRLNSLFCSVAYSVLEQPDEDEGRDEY

Compound in this assay: CC1(C)S[C@@H]2[C@H](NC(=O)[C@H](N)c3ccccc3)C(=O)N2[C@H]1C(=O)O [ampicillin]
Kind of assay: log2 fold change of tryptic peptide abundance, ligand vs vehicle (limited proteolysis) (log2 ratio); higher = more trypsin-susceptible (destabilized). Conditions: ligand concentration: 10 uM; sample: E. coli crude lysate.
With “UniProt P0AE28 (peptide sequence: GADVIMLDCLGFHQR, peptide start residue: 182)”, the log2 fold change was -0.177.

As to “UniProt P0AFU8 (peptide sequence: ENAMNQPGTEA, peptide start residue: 203)”, the log2 fold change is -0.272.

For the target “UniProt P0ADD5 (peptide sequence: DGQCLTSTR, peptide start residue: 62)”, the log2 fold change was 0.138.

As for “UniProt P0AEK2 (peptide sequence: MKDEEWNDIIETNLSSVFR, peptide start residue: 98)”, the log2 fold change was -0.218.

Take “UniProt P0AEX3 (peptide sequence: ALKEAGSLK, peptide start residue: 228)”: the log2 fold change was -0.118.

On to “UniProt P0AG14 (peptide sequence: EKFREELNETHQLFK, peptide start residue: 245)”, for which the log2 fold change is -0.588.

As for “UniProt P0AE58 (peptide sequence: VVDIDEQIYAR, peptide start residue: 79)”, the log2 fold change is -0.215.

For “UniProt P0AEE1 (peptide sequence: AVIVIMGDDPKEDLAVLAKR, peptide start residue: 83)”, the log2 fold change amounted to 0.147.

In the case of “UniProt P0AF43 (peptide sequence: LHQQNVQSIETSSLHLGLLGDMQR, peptide start residue: 495)”, the log2 fold change was determined as 0.198.

For the origin of these results see the supplement of paper PMC12819154, “High-throughput peptide-centric local stability assay extends protein–ligand identification to membrane proteins, tissues and bacteria” (Nature Structural & Molecular Biology, 2025).
